Data from patent US20240299591A1 (priority 2021, published 2024).
A unit is not stated for every read-out. Where a SMILES comes first, the peptide text is derived from it. [ ]: non-standard residue; d: D form. The star is where a group is joined. X1 = CN1/C(=C/C=C(/C=C/C2=[N+](C)c3ccccc3C2(C)C)c2ccc(C(=O)*)cn2)C(C)(C)c2ccccc21

Experiments:
[1] = system: reconstructed cornea-like epithelium (RhCE, EpiOcular™); assay: Viability of reconstructed cornea-like epithelium (eye irritation model); format: cell-based; settings: 10 μM
Experimental: FIG. 4a is a graph of the viability reconstructed cornea-like epithelium (RhCE, EpiOcular™) after incubation with MFIGA001. NC=Negative Control; PC=Positive Control. FIG. 4b is a graph of the viability reconstructed cornea-like epithelium (RhCE, EpiOcular™) after incubation with 10 µM of MFIGA001a and MFIGAF001b. NC=Negative Control; PC=Positive Control; A2=MFIGAF001a; and B1=MFIGAF001b.
MFIGAF001 was also assessed independently by a CRO (Evotec) in an OECD compliant reconstructed cornea-like epithelial cell model (RhCE, EpiOcular™).

[2] = general procedure: Fmoc solid-phase peptide synthesis; 2-chlorotrityl polystyrene resin; settings: whole synthesis

Compound	final HPLC purity ([2]; HPLC (254 nm)) [%]	final HPLC purity ([2]; 254 nm) [%]	further results
CN1/C(=C/C=C(/C=C/C2=[N+](C)c3ccccc3C2(C)C)c2ccc(C(=O)NCCCC[C@@H]3NC(=O)[C@H](Cc4c[nH]c5ccccc45)NC(=O)[C@H](Cc4ccccc4)NC(=O)[C@H](Cc4c[nH]c5ccccc45)NC(=O)[C@@H](Cc4ccccc4)NC(=O)[C@H](CCCCN)NC(=O)[C@H](CCCCN)NC(=O)[C@H](CCCNC(=N)N)NC(=O)CNC3=O)cn2)C(C)(C)c2ccccc21 [MFIGAF001a, Cyclo(Arg-Lys-Lys-phe-Trp-Phe-Trp-Lys(Cy5)-Gly)] (cyclo(FWK(X1)GRKK[dF]W))			Mean of OD [1]: 3.282
Cyclo(Arg-Lys-Lys-ala-Trp-Phe-Trp-Gly)	>99		
Cyclo(Arg-Lys-Lys-phe-Trp-Phe-Trp-Gly)	>99		
Cyclo(Arg-Lys-Lys-phe-Trp-Phe-Trp-Lys(CF))	91		
Cyclo(Arg-Lys-Lys-phe-Trp-Phe-Trp-Lys(CF)-Gly)	76		
Cyclo(Arg-Lys-Lys-phe-Trp-Phe-Trp-Lys(Cy5))	93		
Cyclo(Arg-Lys-Lys-phe-Trp-Phe-Trp-Lys(Cy5)-Gly)	>99		
Cyclo(Arg-Lys-Lys-pro-Trp-Phe-Trp-Gly)	>99		
H-RKKPWFWG-OH		83	
NH2-Arg-Lys-Lys-ala-Trp-Phe-Trp-Gly-COOH		88	
NH2-Arg-Lys-Lys-phe-Trp-Phe-Trp-Gly-COOH		90	
NH2-Arg-Lys-Lys-pro-Trp-Phe-Trp-Gly-COOH		91	
cyclo(RKKPWFWG)	>99		
